{
  "sequences": {"note": "Sequences of proteins named here, by UniProt entry; tags and fusion partners are left off.", "UniProt Q9BYV9": "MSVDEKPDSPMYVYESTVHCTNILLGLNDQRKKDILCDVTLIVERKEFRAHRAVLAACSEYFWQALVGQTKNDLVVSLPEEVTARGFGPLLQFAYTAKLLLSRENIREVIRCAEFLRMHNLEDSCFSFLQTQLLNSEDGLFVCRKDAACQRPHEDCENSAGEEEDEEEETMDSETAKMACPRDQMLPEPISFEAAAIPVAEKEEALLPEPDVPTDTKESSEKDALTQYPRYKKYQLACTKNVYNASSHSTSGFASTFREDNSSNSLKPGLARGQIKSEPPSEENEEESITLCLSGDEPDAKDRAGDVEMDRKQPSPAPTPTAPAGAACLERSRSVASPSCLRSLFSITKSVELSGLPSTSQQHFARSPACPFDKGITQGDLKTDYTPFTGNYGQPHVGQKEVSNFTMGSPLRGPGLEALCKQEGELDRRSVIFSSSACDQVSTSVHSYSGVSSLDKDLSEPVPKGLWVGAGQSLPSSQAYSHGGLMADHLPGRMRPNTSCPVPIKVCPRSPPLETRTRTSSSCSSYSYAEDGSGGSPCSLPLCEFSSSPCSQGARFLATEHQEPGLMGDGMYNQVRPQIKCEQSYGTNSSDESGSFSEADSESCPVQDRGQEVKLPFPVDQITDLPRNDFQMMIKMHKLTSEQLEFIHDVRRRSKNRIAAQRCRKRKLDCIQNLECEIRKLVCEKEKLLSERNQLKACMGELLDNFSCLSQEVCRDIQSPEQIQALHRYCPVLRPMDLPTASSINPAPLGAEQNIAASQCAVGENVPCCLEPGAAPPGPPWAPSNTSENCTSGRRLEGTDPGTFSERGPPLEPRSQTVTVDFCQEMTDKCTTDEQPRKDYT", "UniProt Q9H165": "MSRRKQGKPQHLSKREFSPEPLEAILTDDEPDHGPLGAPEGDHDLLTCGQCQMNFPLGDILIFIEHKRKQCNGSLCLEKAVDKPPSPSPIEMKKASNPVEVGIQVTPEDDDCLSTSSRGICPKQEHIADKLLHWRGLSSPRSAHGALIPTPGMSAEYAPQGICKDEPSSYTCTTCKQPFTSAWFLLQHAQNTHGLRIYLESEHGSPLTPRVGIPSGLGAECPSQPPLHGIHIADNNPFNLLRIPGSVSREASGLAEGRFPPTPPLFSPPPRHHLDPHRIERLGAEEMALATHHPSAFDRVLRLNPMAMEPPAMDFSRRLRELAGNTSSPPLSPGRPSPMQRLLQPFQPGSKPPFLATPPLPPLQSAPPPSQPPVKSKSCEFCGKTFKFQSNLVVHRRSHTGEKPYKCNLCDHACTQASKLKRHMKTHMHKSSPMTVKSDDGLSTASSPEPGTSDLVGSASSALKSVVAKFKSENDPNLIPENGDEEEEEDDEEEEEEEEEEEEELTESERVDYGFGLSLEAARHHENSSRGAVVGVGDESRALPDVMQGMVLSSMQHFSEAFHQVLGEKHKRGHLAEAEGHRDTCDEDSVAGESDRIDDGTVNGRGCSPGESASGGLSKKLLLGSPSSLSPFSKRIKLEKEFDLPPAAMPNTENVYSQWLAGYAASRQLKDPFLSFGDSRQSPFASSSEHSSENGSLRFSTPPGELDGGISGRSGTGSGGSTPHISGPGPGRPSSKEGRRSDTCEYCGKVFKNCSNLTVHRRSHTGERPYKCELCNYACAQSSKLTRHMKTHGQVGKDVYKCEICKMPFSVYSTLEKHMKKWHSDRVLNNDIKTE"},
  "source": "paper doi:10.1101/2023.03.24.23287659",
  "key": {"Flag-NRF2": {"biological_target": "T1, Flag-NRF2 (UniProt Q16236)", "T1 sequence": "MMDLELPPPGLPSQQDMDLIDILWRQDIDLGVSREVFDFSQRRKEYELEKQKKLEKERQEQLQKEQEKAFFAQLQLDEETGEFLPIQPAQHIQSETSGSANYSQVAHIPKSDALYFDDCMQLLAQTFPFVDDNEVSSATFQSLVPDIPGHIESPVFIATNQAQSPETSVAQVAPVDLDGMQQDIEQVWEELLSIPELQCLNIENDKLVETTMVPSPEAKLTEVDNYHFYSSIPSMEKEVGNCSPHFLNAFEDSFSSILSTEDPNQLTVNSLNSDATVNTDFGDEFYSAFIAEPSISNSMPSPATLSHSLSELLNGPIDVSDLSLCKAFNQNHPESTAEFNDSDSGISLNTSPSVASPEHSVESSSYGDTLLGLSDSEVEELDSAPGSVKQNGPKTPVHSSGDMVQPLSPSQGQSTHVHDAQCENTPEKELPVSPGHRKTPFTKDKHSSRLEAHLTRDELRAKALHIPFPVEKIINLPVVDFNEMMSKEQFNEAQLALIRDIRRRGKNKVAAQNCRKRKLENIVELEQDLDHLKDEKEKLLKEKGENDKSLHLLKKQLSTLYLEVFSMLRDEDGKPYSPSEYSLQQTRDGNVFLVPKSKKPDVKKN", "assay": "co-IP"}, "NFE2": {"biological_target": "T2, NFE2 (UniProt Q16621)", "T2 sequence": "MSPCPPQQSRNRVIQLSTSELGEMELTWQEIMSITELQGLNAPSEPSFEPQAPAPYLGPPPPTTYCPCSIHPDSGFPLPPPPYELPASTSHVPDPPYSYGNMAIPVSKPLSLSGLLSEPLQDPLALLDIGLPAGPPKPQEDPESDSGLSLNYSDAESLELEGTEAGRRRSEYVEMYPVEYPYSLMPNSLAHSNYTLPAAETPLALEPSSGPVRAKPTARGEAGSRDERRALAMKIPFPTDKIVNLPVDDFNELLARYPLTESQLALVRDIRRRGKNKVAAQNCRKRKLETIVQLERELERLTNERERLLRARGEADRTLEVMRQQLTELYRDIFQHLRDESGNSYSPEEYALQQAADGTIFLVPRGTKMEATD", "assay": "co-IP"}, "recombinant NRF2": {"biological_target": "T3, recombinant NRF2 (UniProt Q16236)", "T3 sequence": "T1 sequence", "assay": "native gel or EMSA"}, "[1]": {"biological_target": "T4, Flag-NRF2 (overexpressed in K562 cells) (UniProt Q16236)", "T4 sequence": "T1 sequence", "assay": "co-IP"}, "[2]": {"biological_target": "Flag tagged BACH2 (human) (UniProt Q9BYV9)", "assay": "co-IP"}},
  "note": "These are yes or no findings as the source states them, for the method shown. For part of these data: Binding seen in cells or lysates may run through a third protein. Some binding calls cover weakened binding; strength is not graded here. For part of these data: Where a sequence is shown, tags or fusion partners need not be part of it.",
  "data": [
    {"substance": "HA-BACH2 (from UniProt Q9BYV9 1-841)", "values": [
      {"measurement": "binding", "setting": "Flag-NRF2", "result": "binds"},
      {"measurement": "binding", "setting": "NFE2", "result": "no binding"}
    ]},
    {"substance": "recombinant BACH2 (from UniProt Q9BYV9 1-841)", "values": [
      {"measurement": "binding", "setting": "recombinant NRF2", "result": "binds"}
    ]},
    {"substance": "endogenous BACH2 (from UniProt Q9BYV9 1-841)", "values": [
      {"measurement": "binding", "setting": "[1]", "result": "binds"}
    ]},
    {"substance": "HA tagged BCL11A (from UniProt Q9H165 1-835)", "values": [
      {"measurement": "binding", "setting": "[2]", "result": "no binding"},
      {"measurement": "binding", "setting": "Flag-NRF2", "result": "no binding"}
    ]}
  ]
}
